# In PubChem BioAssay AID1347076 (National Center for Advancing Translational Sciences (NCATS), 2019):
# The whole screen tested about 400,000 compounds, of which about 13,000 (3.2%) were called active. Inconclusive results, whose numbers are uncertain, are shown with a selection of clear calls. The call rests on the fitted dose curve; in most records, active means well fitted cell-killing curve with a large enough effect; inconclusive means small, poorly fitted or top-dose-only effect, or effect the other way; inactive means flat fitted curve, though single readings scatter. Potencies beside an inconclusive call are fits to weak or partial responses and may not hold up.
# Test: qHTS assay for MDR1-selective chemotherapeutics: Primary screen using the drug-selected MDR subline cells KB-V1; further: nearly all actives have a fitted effect of over 60% in size
# Details: KB-V1 MDR cells viability, CellTiter-Glo, 72 h; activity change, negative = cytotoxicity: at 46.1 µM (top of the series)
# Method in brief: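 In this primary screen, KB-V1 cells overexpressing P-gp are incubated with library compounds (lowest to highest concentration) for 72 h at 37 degrees C before a luminescent ATP viability read.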
# On the % scale 0 is the no-effect control and ±100 the full control effect; potency means the concentration at half of the fitted maximal effect.
Compound,Potency,"activity change, negative = cytotoxicity"
CN(C)c1ccccc1C(=O)c1ccccc1N(C)C,"inconclusive: 2.31 µM [cytotoxic, partial curve, poor fit]",–
COc1ccc(C2/C(=C(/O)c3ccc(S(=O)(=O)N4CCOCC4)cc3)C(=O)C(=O)N2CCN2CCOCC2)cc1 (centres undefined),"inconclusive: 29.1 µM [rising, single point]",–
CCOC(=O)CCN(c1ccccc1)S(=O)(=O)c1ccc2[nH]c(=O)ccc2c1,"inconclusive: 23.1 µM [rising, partial curve, poor fit]",–
COc1ccc(C2NC(=O)NC(C)=C2C(=O)OCC2CCCCC2)cc1OC (centres undefined),inactive,–
Cc1ccc(S(=O)(=O)N2CCC(=O)N(C(COCc3cccc(Cl)c3)C(C)C)CC2)cc1 (centres undefined),"inconclusive: 6.51 µM [cytotoxic, partial curve]",–
CCOc1ccc(CSCCNC(=S)Nc2ccc(OC)cc2)cc1,"inconclusive: 23.1 µM [cytotoxic, single point]",–
CC(C)C(C(=O)NCc1ccccc1)N(C)Cc1ccc(Cl)c(Cl)c1 (centres undefined),"inconclusive: 14.6 µM [cytotoxic, partial curve]",–
CN(C)S(=O)(=O)c1ccc(NC(=O)c2cc3ccccc3o2)cc1,active: 20.6 µM,–
Cc1ccc(C)c(NC(=O)Cn2nnc(C(=O)NCc3ccco3)c2N)c1,"inconclusive: 0.517 µM [cytotoxic, full curve, poor fit]",–
Oc1nc(Nc2cccc(Cl)c2)sc1/C=C1\C=Nc2ccccc21,–,inconclusive: -92.8%
COc1ccc(C(CCNC(C)c2ccccc2)C(C)C)cc1 (centres undefined),"inconclusive: 6.51 µM [cytotoxic, partial curve]",–
CCOC(=O)c1cnc(-c2ccc(C(F)(F)F)cn2)[nH]c1=O,"inconclusive: 29.1 µM [cytotoxic, single point]",–
COc1ccc2cnnc(SCC(=O)Nc3ccc(C(C)=O)cc3)c2c1OC,active: 5.17 µM,–
CCn1c2ccccc2c2cc(/C=N/O)ccc21,active: 11.6 µM,–
Cc1ccc(OCc2cc(C(=O)N3CCc4[nH]cnc4C3c3ccccn3)no2)cc1C (centres undefined),inactive,–
O=C(C#Cc1ccccc1)c1ccco1,inactive,–
C=CCOc1ccc(/C=C/C(=O)OCC(=O)NCc2ccco2)cc1,inactive,–
CCN(CC)c1ccc2cc(C(N)=O)c(=N)oc2c1,"inconclusive: 4.61 µM [rising, full curve]",–
O=C1[C@H]2[C@H](C=CC[C@H]2C(=O)N2CCOCC2)CCN1Cc1ccc(Cl)c(Cl)c1,"inconclusive: 18.4 µM [cytotoxic, partial curve, poor fit]",–
CCC(=O)N1CCc2nc(-c3ccccc3)sc2C1,inactive,–
Cc1ccccc1CNC(=O)C1CCCN(c2nnc(-n3c(C)ccc3C)s2)C1 (centres undefined),"inconclusive: 0.0052 µM [cytotoxic, full curve, poor fit]",–
CN(C(=O)CN1C(=O)NC(C)(CCc2ccccc2)C1=O)c1ccccc1 (centres undefined),"inconclusive: 7.31 µM [cytotoxic, partial curve]",–
CCOC(=O)c1c(NC(=O)c2cc(=O)c3c(C)cc(C)cc3o2)sc2c1CCC2,"inconclusive: 29.1 µM [rising, single point]",–

Compound,Potency,"activity change, negative = cytotoxicity"
O=[N+]([O-])c1ccccc1Oc1ncccc1[N+](=O)[O-],"inconclusive: 11.6 µM [rising, partial curve]",–
O=C(Cc1cccc2ccccc12)Nc1nc2ccccc2[nH]1,active: 18.4 µM,–
O=C(NCCCN1CCOCC1)c1c(F)c(F)c(F)c(F)c1F,inactive,–
Cc1ccc(S(=O)(=O)CCSc2n[nH]c(=O)n2-c2ccc3c(c2)OCCO3)cc1,inactive,–
Cc1ccc(/C=C/S(=O)(=O)NCC(=O)OCC(=O)Nc2ccc(C(=O)N(C)C)cc2)cc1,inactive,–
COc1ccc(CN2C(=O)C(CC(=O)NCc3cccs3)CC(C(=O)N(C(C)C)C(C)C)=C2C)cc1 (centres undefined),inactive,–
CCC(C)(C)NC(=O)C(c1cccc(OC)c1OC)N(C(=O)CCC(=O)Nc1cc(C)on1)C(C)C (centres undefined),inactive,–
COc1cc(/C=C2/NC(=O)N(Cc3ccccc3F)C2=O)ccc1O,"inconclusive: 23.1 µM [cytotoxic, single point]",–
O=C(NCC1CCCO1)c1ccccc1NS(=O)(=O)c1ccc(F)cc1 (centres undefined),"inconclusive: 18.4 µM [cytotoxic, single point]",–
Cn1cc(S(=O)(=O)N2CCCCCC2)cc1C(=O)N1CCN(c2ccc(Cl)cc2)CC1,"inconclusive: 16.4 µM [cytotoxic, single point]",–
Cc1cccc(NS(=O)(=O)c2c(C)nc3scc(C)n3c2=O)c1,"inconclusive: 7.31 µM [cytotoxic, partial curve]",–
COc1ccc(Cl)cc1NC(=O)CSc1nc2ccccc2nc1N1CCCCC1,"inconclusive: 18.4 µM [cytotoxic, partial curve, poor fit]",–
CCCc1cc(=O)n2[nH]c(C)c(-c3ccc(Cl)cc3)c2n1,"inconclusive: 32.6 µM [cytotoxic, single point]",–
Cc1ccc(CC(=O)Nc2ccccc2-c2ccccc2)cc1C,active: 20.6 µM,–
CC(NC(=O)c1ccc2ccccc2n1)c1ccc(Br)cc1 (centres undefined),inactive,–
CCOC(=O)c1c(C)oc2ncnc(N3CCN(c4cccc(Cl)c4)CC3)c12,"inconclusive: 29.1 µM [cytotoxic, single point]",–
COc1ccc2c(c1)c1c(c(=O)n(-c3ccc(OC)c(OC)c3)c(=O)n1Cc1ccc(C)cc1)n2C,"inconclusive: 9.2 µM [rising, partial curve, poor fit]",–
CCCCNC(=O)CCCn1c(=O)c2ccccc2n(Cc2ccc(Cl)cc2)c1=O,inactive,–
CCc1noc(C)c1C(=O)Nc1nc(-c2cc(C)ccc2C)c(C)s1,"inconclusive: 18.4 µM [cytotoxic, partial curve, poor fit]",–
CCN(CC)S(=O)(=O)c1ccc2oc(C(=O)NC3CCCc4ccccc43)c(C)c2c1 (centres undefined),"inconclusive: 14.6 µM [cytotoxic, partial curve, poor fit]",–
O=C(NN=Cc1cc(Cl)ccc1[N+](=O)[O-])c1cccc2ccccc12,"inconclusive: 3.66 µM [cytotoxic, full curve]",–
CCC(C)NC(=O)c1c(N)n(/N=C/c2ccccn2)c2nc3ccccc3nc12 (centres undefined),active: 20.6 µM,–
Cc1cc2c(cc1C)-n1c(-c3ccccc3)c3c(=O)n(C)c(=O)n(C)c3c1C(c1ccco1)N2 (centres undefined),"inconclusive: 16.4 µM [rising, partial curve, poor fit]",–

Compound,Potency,"activity change, negative = cytotoxicity"
CCOC(=O)C1(CC2CCCCO2)CCN(Cc2nc3ccccc3[nH]2)CC1 (centres undefined),"inconclusive: 2.59 µM [cytotoxic, partial curve, poor fit]",–
CCOC(=O)c1csc(NC(=O)c2cc3ccccc3o2)n1,inactive,–
COC(=O)[C@@H]1Cc2c([nH]c3ccccc23)C(C)(C)N1C(=O)CCl,"inconclusive: 29.1 µM [cytotoxic, single point]",–
COc1cccc(CN2CCN(C(=O)c3ccc(-c4ccccc4)cc3)CC2)c1,"inconclusive: 20.6 µM [cytotoxic, single point]",–
CC(C)c1ccc(NC(=O)CCc2ccccc2)cc1,active: 7.31 µM,–
Cc1ccc(S(=O)(=O)N2CCC(C(=O)OCC(=O)N(C)C3CCS(=O)(=O)C3)CC2)cc1C (centres undefined),"inconclusive: 0.58 µM [rising, full curve, poor fit]",–
O=C(Cc1ccccc1)Nc1cc(-c2nc3cc(Cl)ccc3o2)ccc1Cl,inactive,–
Cc1nc(SCC(=O)N2CCN(c3ccccn3)CC2)c(C#N)c(C)c1C,active: 7.31 µM,–
Fc1ccc(-c2noc3ncnc(N4CCCCC4)c23)cc1,inactive,–
O=C(NCCc1ccccc1)N1CCCC(CNS(=O)(=O)Cc2ccccc2)C1 (centres undefined),"inconclusive: 29.1 µM [cytotoxic, single point]",–
CCC(Sc1nc2ccsc2c(=O)n1Cc1ccc(C(=O)O)cc1)C(=O)Nc1ccc(Cl)cc1 (centres undefined),"inconclusive: 29.1 µM [rising, single point]",–
CCOCCCNC(=O)C(c1ccc(OC)cc1)N(Cc1cccs1)C(=O)c1ccccn1 (centres undefined),"inconclusive: 7.31 µM [cytotoxic, partial curve, poor fit]",–
NS(=O)(=O)c1cccc(NC(=O)COC(=O)/C=C/c2nc3ccccc3s2)c1,"inconclusive: 2.59 µM [rising, full curve]",–
CCN(CC(=O)NCc1ccc(Cl)cc1)C(=O)c1cccc(S(=O)(=O)Nc2ccc(OC)cc2)c1,inactive,–
O=C(CN1CCN(S(=O)(=O)c2ccc(F)c(Cl)c2)CC1)N1CCOCC1,inactive,–
Cc1cc(-n2c(C)cc(C(=O)CSc3nnnn3-c3ccccc3)c2C)no1,"inconclusive: 18.4 µM [cytotoxic, single point]",–
Cc1ccc(C2=NN(S(=O)(=O)c3ccccc3)C(c3ccccc3O)C2)cc1 (centres undefined),"inconclusive: 20.6 µM [cytotoxic, single point]",–
O=C(Nc1ccc(-c2nnc3n2CCCCC3)cc1)c1ccco1,"inconclusive: 20.6 µM [rising, single point]",–
Cc1nn(C)cc1NC(=O)c1cc2nc(-c3ccco3)cc(C(F)(F)F)n2n1,"inconclusive: 20.6 µM [cytotoxic, partial curve, poor fit]",–
CC1=Nc2cc(C(=O)O)ccc2Sc2ccc(C)cc21,inactive,–
c1ccc2sc(SN3CCOCC3)nc2c1,"inconclusive: 29.1 µM [rising, partial curve, poor fit]",–
CCOC(=O)C1=CN(Cc2ccco2)S(=O)(=O)NC1c1cccc(OC)c1 (centres undefined),inactive,–
CCn1c2ccccc2c2cc(NC(=O)C(C)C)ccc21,"inconclusive: 18.4 µM [cytotoxic, partial curve, poor fit]",–

# Single records, as listed above. Values in the order: Potency | activity change, negative = cytotoxicity
# `O=C(NCCc1ccccc1)N1CCCC(CNS(=O)(=O)Cc2ccccc2)C1` (centres undefined) as listed: inconclusive: 29.1 µM [cytotoxic, single point] | –
# `Fc1ccc(-c2noc3ncnc(N4CCCCC4)c23)cc1` as listed: inactive | –
# `O=C(CN1CCN(S(=O)(=O)c2ccc(F)c(Cl)c2)CC1)N1CCOCC1` as listed: inactive | –
# `CCC(Sc1nc2ccsc2c(=O)n1Cc1ccc(C(=O)O)cc1)C(=O)Nc1ccc(Cl)cc1` (centres undefined) as listed: inconclusive: 29.1 µM [rising, single point] | –
